The target of assay [1] is histone H3 peptide (residues 1-24) with H3K9me3, plus a C-terminal tryptophan (UniProt P68431). Description: ITC; 0.04-0.05 mM protein titrated with 0.5 mM histone peptide at 7 °C, 20 mM Tris-HCl pH 7.5, 100 mM NaCl, 1 mM β-mercaptoethanol; single-site fit; apparent; both purified.
Assay [2] concerns the target T1, DIM2 (residues 1-1242) W261A/W581A (Neurospora crassa) (UniProt Q3Y3Z1).
T1 sequence: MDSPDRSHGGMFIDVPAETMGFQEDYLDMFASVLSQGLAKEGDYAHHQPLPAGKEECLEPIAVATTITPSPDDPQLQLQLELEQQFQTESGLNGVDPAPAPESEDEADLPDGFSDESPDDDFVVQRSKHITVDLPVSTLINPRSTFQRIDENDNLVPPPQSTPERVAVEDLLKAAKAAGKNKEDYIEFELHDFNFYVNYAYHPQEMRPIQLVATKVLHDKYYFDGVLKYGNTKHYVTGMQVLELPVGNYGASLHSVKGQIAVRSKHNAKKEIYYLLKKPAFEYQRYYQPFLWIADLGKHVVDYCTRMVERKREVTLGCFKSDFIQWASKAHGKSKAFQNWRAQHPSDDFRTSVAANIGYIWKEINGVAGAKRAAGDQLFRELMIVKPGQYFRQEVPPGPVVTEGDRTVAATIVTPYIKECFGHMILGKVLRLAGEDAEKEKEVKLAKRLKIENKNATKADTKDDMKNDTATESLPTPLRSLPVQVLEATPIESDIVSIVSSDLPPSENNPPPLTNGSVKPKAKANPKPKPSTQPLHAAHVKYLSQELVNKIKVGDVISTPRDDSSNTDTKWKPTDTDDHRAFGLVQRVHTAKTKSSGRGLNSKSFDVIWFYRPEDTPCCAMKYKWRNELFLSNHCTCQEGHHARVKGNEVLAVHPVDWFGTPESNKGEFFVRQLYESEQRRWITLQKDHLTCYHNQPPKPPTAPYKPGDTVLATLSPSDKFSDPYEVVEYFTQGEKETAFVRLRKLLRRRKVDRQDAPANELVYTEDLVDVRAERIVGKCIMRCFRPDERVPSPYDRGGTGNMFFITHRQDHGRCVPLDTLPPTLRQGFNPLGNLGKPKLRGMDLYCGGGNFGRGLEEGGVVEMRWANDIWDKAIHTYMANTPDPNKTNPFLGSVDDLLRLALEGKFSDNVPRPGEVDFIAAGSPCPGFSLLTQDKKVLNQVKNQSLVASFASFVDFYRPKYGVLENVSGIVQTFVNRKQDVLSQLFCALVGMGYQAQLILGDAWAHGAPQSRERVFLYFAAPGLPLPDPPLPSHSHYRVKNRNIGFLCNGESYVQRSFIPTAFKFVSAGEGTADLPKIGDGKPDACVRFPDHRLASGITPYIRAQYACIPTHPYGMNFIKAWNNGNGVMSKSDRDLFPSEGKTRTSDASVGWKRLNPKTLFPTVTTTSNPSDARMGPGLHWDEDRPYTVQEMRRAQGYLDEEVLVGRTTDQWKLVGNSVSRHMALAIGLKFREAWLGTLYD
The experiment in a line: condition: 0.5 mM peptide titrated into 0.04-0.05 mM protein; ITC; 0.04-0.05 mM protein titrated with 0.5 mM histone peptide at 7 °C; 20 mM Tris-HCl pH 7.5, 100 mM NaCl, 1 mM beta-mercaptoethanol; MicroCal iTC200; fitted with single-site binding mode (apparent Kd for WT DIM2); both purified.

Sequences of proteins named here, by UniProt entry; tags and fusion partners are left off.
UniProt Q1K612: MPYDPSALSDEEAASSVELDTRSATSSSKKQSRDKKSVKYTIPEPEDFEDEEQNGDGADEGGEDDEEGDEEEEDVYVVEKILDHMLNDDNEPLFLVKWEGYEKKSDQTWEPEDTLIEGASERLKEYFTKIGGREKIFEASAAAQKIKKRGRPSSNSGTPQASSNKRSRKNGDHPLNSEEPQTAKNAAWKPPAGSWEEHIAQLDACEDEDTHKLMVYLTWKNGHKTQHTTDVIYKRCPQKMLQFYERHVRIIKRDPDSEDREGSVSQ

Results are given in words; binding and its absence hold for the method and conditions named. Some entries that bind do so weakly or less than the wild type.

As for “heterochromatin protein 1 (HP1), full length, residues 1-266 (from UniProt Q1K612 1-266)”, the binding result in assay [1] is “binds”.

Consider “histone H3 peptide (residues 1-24) harboring the H3K9me3 modification (from UniProt P68431 2-25)”, for which, in assay [2], the binding result is “no binding”.
